Results: patent US20110305629A1
Results are given in words; binding and its absence hold for the method and conditions named. Some binding calls cover weakened binding; strength is not graded here.

Protein sequences, listed by entry. Tags and fused reporters are not part of them. Lines headed by an entry give the natural chain unless they say otherwise; changes in a name come on top.
UniProt P43406: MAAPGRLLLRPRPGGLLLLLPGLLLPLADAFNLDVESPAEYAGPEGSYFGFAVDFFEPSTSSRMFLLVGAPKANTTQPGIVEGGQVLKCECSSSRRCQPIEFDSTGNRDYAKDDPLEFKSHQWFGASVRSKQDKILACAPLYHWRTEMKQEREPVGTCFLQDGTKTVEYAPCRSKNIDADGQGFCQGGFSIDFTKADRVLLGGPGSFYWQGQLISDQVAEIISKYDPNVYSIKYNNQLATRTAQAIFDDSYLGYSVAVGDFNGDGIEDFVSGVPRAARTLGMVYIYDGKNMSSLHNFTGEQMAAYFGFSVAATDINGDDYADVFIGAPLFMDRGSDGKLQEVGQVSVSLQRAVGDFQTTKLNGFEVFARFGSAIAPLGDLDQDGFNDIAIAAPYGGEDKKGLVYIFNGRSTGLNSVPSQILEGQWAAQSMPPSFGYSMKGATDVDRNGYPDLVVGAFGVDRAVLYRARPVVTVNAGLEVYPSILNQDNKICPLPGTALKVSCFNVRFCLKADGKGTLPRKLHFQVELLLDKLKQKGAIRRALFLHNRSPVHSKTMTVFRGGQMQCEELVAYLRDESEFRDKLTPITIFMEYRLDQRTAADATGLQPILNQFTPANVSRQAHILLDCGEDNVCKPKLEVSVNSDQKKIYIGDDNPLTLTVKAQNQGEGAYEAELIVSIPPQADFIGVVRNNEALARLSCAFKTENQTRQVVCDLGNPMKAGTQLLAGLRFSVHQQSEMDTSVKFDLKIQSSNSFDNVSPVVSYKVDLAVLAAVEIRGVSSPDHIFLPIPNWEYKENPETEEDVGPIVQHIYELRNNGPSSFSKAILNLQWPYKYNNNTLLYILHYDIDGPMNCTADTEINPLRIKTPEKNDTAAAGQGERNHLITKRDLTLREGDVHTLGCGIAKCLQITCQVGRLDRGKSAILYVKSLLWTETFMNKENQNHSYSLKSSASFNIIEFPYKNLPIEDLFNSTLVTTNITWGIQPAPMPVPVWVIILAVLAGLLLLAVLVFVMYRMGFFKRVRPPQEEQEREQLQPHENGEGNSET
UniProt Q9Z0T9: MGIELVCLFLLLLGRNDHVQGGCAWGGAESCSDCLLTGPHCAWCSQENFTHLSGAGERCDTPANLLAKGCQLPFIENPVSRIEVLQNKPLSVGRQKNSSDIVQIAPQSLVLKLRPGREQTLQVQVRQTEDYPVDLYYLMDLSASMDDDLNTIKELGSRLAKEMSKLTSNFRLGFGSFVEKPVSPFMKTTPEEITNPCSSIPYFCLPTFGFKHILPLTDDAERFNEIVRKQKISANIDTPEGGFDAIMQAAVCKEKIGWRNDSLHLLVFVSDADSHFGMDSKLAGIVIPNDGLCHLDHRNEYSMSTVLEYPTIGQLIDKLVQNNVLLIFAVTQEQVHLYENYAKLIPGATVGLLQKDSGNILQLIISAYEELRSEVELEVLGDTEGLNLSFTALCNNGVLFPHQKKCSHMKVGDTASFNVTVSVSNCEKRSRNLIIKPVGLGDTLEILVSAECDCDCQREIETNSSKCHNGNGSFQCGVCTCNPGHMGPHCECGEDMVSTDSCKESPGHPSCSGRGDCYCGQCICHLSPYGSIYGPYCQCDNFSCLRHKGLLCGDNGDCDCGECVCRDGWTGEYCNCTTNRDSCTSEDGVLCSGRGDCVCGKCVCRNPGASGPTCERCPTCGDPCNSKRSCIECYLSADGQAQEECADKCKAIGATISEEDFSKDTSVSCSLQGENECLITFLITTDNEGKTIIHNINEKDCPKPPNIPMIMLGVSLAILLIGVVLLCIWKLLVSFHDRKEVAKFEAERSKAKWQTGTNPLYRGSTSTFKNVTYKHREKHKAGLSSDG

How the values were obtained:
[1] = biological target: T1, mouse αvβ6 integrin on cells (mouse) (UniProt P43406+Q9Z0T9); assay: flow cytometry on FDCP1-β6 cells (FIG. 4)
[2] = biological target: T1, mouse αvβ6 integrin on cells (mouse); assay: flow cytometry on FDCP1-β6 cells, purified mAbs (FIG. 5)
[3] = biological target: T1, mouse αvβ6 integrin on cells (mouse); assay: flow cytometry on FDCP1-β6 cells, purified antibodies (FIG. 5)
[4] = biological target: T1, mouse αvβ6 integrin on cells (mouse); assay: flow cytometry on FDCP1-β6 cells, supernatants (FIG. 4)

Measured: binding

B1: hu3G9 version 5 (H3/L5), pKJS168 and pKJS188 pairing (antibody, human IgG1, V domains shown)
VH: EVQLVESGGGLVQPGGSLRLSCAASGFTFSRYVMSWVRQAPGKGLEWVASISSGGRMYYPDTVKGRFTISRDNAKNSLYLQMNSLRAEDTAVYYCARGSIYDGYYVFPYWGQGTLVTVSS
VL: EIVLTQSPATLSLSPGERATLSCSASSSVSSSYLYWYQQKPGQAPRLLIYSTSNLASGIPARFSGSGSGTDFTLTISSLEPEDFAVYYCHQWSTYPPTFGGGTKVEIK
binds: all assays above
